Measurements taken from the supplement of paper PMC10849652.
Some of the results follow.

Protein sequences, listed by entry. Tags and fused reporters are not part of them. Lines headed by an entry give the natural chain unless they say otherwise; changes in a name come on top.
UniProt P08922: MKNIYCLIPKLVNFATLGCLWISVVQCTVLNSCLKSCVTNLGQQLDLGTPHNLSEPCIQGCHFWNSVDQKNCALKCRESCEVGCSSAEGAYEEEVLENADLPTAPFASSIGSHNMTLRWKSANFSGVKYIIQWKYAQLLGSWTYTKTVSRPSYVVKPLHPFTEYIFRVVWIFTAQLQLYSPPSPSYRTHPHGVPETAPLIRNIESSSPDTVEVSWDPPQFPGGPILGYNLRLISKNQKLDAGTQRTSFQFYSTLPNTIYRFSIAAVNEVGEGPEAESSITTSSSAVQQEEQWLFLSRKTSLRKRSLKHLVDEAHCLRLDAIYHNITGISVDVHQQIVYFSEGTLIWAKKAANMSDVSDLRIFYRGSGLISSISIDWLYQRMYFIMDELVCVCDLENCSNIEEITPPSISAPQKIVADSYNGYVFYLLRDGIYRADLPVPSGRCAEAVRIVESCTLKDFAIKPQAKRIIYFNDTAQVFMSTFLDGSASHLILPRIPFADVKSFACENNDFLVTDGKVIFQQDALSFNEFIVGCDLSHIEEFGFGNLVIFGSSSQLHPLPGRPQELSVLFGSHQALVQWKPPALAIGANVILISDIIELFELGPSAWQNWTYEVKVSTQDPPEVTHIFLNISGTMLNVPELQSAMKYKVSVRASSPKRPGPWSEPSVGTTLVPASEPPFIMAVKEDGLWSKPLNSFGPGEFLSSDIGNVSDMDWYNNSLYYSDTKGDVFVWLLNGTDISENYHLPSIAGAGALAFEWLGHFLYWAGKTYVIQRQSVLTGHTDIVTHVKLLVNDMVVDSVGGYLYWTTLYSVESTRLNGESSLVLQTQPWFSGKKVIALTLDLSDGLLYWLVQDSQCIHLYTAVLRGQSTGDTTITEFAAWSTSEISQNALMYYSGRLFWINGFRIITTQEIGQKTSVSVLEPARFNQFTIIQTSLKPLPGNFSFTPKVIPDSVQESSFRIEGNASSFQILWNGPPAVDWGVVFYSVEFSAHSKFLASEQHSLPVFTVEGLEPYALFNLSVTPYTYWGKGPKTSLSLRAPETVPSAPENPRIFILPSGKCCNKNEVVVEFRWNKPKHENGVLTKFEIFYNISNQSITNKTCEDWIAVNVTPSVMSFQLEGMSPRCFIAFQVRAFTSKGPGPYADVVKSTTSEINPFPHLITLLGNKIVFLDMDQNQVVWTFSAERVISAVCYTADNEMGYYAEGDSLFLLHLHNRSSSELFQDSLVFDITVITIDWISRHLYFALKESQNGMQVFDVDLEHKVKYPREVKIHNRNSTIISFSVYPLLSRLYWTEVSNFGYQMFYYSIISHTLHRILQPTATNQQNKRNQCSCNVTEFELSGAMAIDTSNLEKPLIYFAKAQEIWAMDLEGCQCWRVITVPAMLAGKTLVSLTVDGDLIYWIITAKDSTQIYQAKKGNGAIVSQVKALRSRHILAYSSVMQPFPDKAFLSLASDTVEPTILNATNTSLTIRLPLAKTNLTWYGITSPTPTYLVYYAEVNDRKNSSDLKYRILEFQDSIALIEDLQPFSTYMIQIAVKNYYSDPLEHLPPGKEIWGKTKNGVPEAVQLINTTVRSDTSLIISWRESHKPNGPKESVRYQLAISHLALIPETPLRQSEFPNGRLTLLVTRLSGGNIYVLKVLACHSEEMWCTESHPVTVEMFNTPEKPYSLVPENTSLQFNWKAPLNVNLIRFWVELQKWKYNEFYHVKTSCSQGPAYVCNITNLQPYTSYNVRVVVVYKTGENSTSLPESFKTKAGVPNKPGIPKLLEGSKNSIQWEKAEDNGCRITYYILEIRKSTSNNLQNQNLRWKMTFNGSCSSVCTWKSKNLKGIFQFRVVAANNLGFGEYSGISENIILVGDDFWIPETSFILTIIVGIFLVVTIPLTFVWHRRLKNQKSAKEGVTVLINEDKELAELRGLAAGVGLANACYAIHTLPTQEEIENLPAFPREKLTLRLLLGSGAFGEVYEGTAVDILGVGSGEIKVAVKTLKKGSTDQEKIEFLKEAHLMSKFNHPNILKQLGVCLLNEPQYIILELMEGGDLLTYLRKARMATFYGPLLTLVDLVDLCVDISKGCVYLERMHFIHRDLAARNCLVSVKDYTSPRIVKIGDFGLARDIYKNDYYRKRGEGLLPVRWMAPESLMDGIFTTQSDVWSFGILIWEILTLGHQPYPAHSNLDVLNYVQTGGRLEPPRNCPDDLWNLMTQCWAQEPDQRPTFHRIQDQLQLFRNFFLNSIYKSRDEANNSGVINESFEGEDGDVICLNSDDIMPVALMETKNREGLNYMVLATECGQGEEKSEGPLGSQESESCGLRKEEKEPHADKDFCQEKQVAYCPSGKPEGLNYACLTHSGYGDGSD
UniProt Q5XPI4: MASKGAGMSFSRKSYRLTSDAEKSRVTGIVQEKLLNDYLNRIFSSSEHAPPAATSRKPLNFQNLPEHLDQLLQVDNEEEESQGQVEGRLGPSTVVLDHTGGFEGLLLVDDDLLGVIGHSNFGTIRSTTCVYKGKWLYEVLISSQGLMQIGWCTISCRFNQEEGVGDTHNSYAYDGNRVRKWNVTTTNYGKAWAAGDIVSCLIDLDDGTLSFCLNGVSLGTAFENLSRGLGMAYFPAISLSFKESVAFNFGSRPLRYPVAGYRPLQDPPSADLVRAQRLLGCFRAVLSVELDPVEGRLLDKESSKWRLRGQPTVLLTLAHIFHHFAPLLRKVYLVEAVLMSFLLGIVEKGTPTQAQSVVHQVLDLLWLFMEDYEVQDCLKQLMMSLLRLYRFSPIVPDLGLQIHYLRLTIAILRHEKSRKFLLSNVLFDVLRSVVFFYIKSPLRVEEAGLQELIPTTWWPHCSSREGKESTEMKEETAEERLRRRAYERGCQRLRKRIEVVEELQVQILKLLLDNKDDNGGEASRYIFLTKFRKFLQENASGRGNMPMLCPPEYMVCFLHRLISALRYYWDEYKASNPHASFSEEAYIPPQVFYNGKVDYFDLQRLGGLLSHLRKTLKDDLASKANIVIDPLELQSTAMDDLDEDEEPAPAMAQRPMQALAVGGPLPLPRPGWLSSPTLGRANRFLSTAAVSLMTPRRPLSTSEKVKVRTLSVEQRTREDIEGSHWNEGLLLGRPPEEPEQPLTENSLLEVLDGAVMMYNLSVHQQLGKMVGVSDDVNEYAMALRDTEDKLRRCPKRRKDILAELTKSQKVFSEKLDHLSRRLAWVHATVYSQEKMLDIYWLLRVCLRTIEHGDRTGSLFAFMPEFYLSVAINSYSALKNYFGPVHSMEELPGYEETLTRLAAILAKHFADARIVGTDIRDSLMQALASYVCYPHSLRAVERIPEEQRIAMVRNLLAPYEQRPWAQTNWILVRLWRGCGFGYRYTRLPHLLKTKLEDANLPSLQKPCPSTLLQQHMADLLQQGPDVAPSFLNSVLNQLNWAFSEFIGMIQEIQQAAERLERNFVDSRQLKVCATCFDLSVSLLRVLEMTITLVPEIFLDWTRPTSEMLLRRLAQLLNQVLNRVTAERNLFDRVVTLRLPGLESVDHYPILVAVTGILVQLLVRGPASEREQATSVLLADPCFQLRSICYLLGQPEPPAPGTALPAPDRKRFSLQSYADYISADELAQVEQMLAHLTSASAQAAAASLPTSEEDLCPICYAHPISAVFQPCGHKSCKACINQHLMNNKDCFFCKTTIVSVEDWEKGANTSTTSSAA
UniProt Q01974, whole entry, looked up: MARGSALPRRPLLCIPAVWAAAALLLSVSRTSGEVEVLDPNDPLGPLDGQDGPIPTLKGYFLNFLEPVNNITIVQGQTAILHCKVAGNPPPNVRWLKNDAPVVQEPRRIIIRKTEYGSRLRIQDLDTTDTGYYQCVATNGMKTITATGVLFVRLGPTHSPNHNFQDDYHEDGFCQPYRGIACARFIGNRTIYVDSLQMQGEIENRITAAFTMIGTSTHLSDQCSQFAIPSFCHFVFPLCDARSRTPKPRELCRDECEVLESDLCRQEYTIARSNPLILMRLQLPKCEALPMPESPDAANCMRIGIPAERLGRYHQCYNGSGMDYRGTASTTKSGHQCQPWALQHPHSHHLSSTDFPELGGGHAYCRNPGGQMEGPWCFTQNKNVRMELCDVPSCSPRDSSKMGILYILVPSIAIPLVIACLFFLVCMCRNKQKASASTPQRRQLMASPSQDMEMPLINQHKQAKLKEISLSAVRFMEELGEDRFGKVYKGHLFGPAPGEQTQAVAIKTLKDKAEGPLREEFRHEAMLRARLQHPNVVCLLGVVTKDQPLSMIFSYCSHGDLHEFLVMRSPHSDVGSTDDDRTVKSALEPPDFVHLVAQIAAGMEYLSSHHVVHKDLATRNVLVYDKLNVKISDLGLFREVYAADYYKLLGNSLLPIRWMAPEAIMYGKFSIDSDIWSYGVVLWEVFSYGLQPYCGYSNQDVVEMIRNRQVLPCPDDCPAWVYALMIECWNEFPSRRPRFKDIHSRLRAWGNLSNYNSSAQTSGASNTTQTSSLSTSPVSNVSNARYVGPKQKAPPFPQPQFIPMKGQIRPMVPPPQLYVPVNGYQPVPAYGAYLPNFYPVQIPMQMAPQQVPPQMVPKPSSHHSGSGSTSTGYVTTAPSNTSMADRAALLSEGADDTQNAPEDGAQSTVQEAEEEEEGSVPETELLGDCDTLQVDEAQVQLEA
UniProt P10155: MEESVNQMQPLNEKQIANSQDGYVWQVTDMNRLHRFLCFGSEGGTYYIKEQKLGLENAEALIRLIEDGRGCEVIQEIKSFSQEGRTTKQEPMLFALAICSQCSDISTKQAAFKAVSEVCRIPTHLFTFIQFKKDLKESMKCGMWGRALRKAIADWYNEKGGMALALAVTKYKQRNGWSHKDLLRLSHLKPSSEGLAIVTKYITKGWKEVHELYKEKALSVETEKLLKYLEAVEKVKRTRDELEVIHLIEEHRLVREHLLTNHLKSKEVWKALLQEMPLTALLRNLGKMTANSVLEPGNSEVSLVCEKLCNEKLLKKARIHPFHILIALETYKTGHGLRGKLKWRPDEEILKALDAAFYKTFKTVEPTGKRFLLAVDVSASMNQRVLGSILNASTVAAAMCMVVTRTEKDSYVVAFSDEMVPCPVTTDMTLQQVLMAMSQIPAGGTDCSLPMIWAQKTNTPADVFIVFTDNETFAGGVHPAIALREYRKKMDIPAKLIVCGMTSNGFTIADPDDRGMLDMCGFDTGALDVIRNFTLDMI
UniProt P27694, whole entry, looked up: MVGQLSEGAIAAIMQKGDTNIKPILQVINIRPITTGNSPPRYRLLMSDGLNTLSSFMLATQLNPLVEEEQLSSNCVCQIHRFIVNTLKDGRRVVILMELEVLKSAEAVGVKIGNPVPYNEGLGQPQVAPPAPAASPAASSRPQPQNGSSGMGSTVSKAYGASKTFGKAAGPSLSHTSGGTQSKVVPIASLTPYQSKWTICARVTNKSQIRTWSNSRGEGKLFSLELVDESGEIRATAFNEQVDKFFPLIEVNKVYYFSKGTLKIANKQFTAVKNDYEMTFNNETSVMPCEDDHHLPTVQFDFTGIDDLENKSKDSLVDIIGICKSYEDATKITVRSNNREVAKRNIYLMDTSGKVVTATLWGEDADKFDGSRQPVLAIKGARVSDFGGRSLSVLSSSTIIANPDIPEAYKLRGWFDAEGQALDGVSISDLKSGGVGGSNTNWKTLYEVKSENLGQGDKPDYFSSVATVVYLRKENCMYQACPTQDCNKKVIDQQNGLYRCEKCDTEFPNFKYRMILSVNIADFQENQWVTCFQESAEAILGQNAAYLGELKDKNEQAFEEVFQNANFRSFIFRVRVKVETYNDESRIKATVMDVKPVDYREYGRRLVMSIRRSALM

How the values were obtained:
Experiment in all cases: log2 fold change, soluble protein after heating vs DMSO (PISA); higher = thermal stabilisation; K562 lysate, 10 uM; active = over 0.2 and 3.5 SD of the protein, either way, in both replicates (recomputed)
[1] = compound: C1=CC=C(C=C1)[C@H](COC2=CC3=C(C=C2)NC(=O)N3)NC(=O)C4=CC=CN(C4=O)CC5=CC(=C(C=C5)F)F
How it was run: (§1)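 The values are log-two fold changes in thermal stability compared with solvent controls and come from duplicates. They were obtained by TMTpro 16plex LC-MS/MS, with channel sums equalised, on the supernatant after 21,000xg for 90 min. That supernatant came from crude K562 extract at 1 mg/mL protein treated with 10 μM compound for 30 min, heated for 3 min across 48°C-58°C, pooled and brought to 0.5% NP-40 at 4°C.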

[2] = compound: CC1=C(SC2=C1C(=N[C@H](C3=NN=C(N32)C)CC(=O)N)C4=CC=C(C=C4)Cl)C
How it was run: as §1

[3] = compound: CC1=C2C(=CC=C1)N=C(N(C2=O)C3=CC=CC=C3C)CN4C=NC5=C(N=CN=C54)N
How it was run: as §1

[4] = compound: Cc1sc2c(c1C)C(c1ccc(Cl)cc1)=N[C@@H](CC(=O)OC(C)(C)C)c1nnc(C)n1-2
How it was run: as §1

[5] = compound: c1ccc([C@@H]2C[C@H]2NC2CCNCC2)cc1
How it was run: as §1

Measured: log2 fold change

RPL3 (UniProt P39023)
inactive: [1] -0.02 | [2] -0.001 | [3] -0.018 | [4] 0.032 | [5] 0.057

RPL23A (UniProt P62750)
inactive: [1] -0.001 | [2] 0.018 | [3] -0.035 | [4] 0.032 | [5] 0.077

ROS1 (UniProt P08922)
inactive: [1] -0.047 | [2] 0.048 | [3] 0.058 | [4] -0.042 | [5] -0.178

RPL18A (UniProt Q02543)
inactive: [1] 0.065 | [2] -0.007 | [3] 0.023 | [4] -0.017 | [5] 0.002

RPL10A (UniProt P62906)
inactive: [1] 0.001 | [2] 0.028 | [3] -0.02 | [4] 0.019 | [5] -0.001

RNF123 (UniProt Q5XPI4)
inactive: [1] -0.019 | [2] -0.024 | [3] 0.019 | [4] 0.005 | [5] 0.047

ROR2 (UniProt Q01974)
inactive: [1] -0.003 | [2] 0.023 | [3] 0.005 | [4] 0.007 | [5] -0.008

RO60 (UniProt P10155)
inactive: [1] 0.017 | [2] -0.013 | [3] -0.022 | [4] 0.025 | [5] 0.057

RPA1 (UniProt P27694)
inactive: [1] -0.015 | [2] 0.012 | [3] 0.005 | [4] -0.02 | [5] 0.054
